Laboratory results from PubChem BioAssay AID504444 (National Center for Advancing Translational Sciences (NCATS), 2011).
Screen size: about 360,000 compounds; about 7,500 (2.1%) were called active. This list was built around the results that the source calls inconclusive (neither active nor inactive); the mix of calls is not that of the screen. Calls come from the whole dose curve; as a rule, active = well fitted inhibition curve with a large enough effect; inconclusive = small, poorly fitted or top-dose-only effect, or effect the other way; inactive = flat fitted curve, though single readings scatter. Where the call is inconclusive, the potency comes from a doubtful curve fit.

Assay: Nrf2 qHTS screen for inhibitors; note: nearly all actives have a fitted effect of over 60% in size
Conditions: A549 ARE-Fluc reporter, luciferase luminescence, 18-24 h; series mostly up to 46 µM
How it was run: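 Nrf2 activity is the BugLite luminescence, read 15 min after reagent at room temperature, following CellTiter-Fluor cytotoxicity readout (30 min, 37C). Compound titrations were applied for 18-24 h to 5000 A549 ARE_Fluc cells/well in 5% FBS OPTI-MEM.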
Potency is the fitted concentration of half-maximal effect.

SMILES	Potency
COc1ccccc1N1CC(C(=O)OC(C)C(=O)N2CCCc3ccccc32)CC1=O (centres undefined)	inactive
COc1ccc(Cl)cc1C(=O)O/N=C(\N)c1ccc(Cl)cc1	inconclusive: 9.2 µM [activator, partial curve]
COc1cc(C=O)ccc1OCc1cccc(Br)c1	inactive
CCCCOC(=O)c1ccc(NC(=O)c2cc3c(=O)n4cccc(C)c4nc3n2C)cc1	inconclusive: 20.6 µM [falling, partial curve]
O=C(NCCCn1ccnc1)c1ccc(-c2cccc(C(F)(F)F)c2)o1	inconclusive: 16.4 µM [falling, partial curve, poor fit]
Cc1ccc(CNS(=O)(=O)c2ccc3c(c2)n(C)c(=O)n3C)cc1	active: 20.6 µM
Cn1ncc2c(N3CCN(c4ccc(Cl)c(Cl)c4)CC3)ncnc21	inconclusive: 4.61 µM [falling, full curve]
Cc1ccc2cc(CCNC(=O)c3cccc([N+](=O)[O-])c3)c(=O)[nH]c2c1C	inconclusive: 29.1 µM [falling, single point]
CCN(CC)c1ccc(C(=O)O)cc1	inactive
CC(C)(C)c1ccc(OCCCn2ccnc2)cc1	inconclusive: 29.1 µM [falling, single point]
O=C(NC1CCCC1)c1ccc(Cl)s1	inactive
O=C(NCC(c1ccc(F)cc1)N1CCOCC1)c1nn(-c2ccccc2)c(=O)c2ccccc12 (centres undefined)	inconclusive: 32.6 µM [falling, single point]
CCCN(CCC)C(=O)c1cc([N+](=O)[O-])cc2c1-c1ccc([N+](=O)[O-])cc1C2=C(C#N)C#N	inactive
COc1ccc(S(=O)(=O)N2CCN(c3ccccc3OC)CC2)cc1-c1noc(C)n1	inconclusive: 29.1 µM [activator, single point]
COc1ccc(Cn2nnnc2C(C(C)C)N2CCc3ccccc32)cc1 (centres undefined)	active: 16.4 µM
O=C(CCc1ccccc1F)N1CCN(c2ccc(C(F)(F)F)cn2)CC1	inconclusive: 29.1 µM [falling, single point]
O=C(Nc1ccc(N2CCN(C(=O)c3ccco3)CC2)c(Cl)c1)c1cc2ccccc2o1	active: 18.4 µM
O=C(Cc1ccc([N+](=O)[O-])cc1)N1CCN(c2ccc([N+](=O)[O-])cc2)CC1	inconclusive: 29.1 µM [falling, single point]
Cc1ccc(C(C)C)c(OCCCN2C(=O)NC(C)(C)C2=O)c1	inconclusive: 29.1 µM [falling, single point]
COc1cc(OC)c(NC(=O)c2cc(CN3CCOCC3)on2)cc1Cl	inactive
Cc1c(N=Cc2c(O)n(Cc3ccco3)c(=O)c3ccccc23)c(=O)n(-c2ccccc2)n1C	inconclusive: 29.1 µM [falling, single point]
O=C(CCS(=O)(=O)c1ccccc1)N1CCOCC1	inconclusive: 11.6 µM [activator, partial curve]
Cc1cccc(N(C(=O)c2sc(C)nc2C)C(C(=O)NCc2ccco2)c2ccccc2)c1 (centres undefined)	inconclusive: 25.9 µM [falling, single point]

SMILES	Potency
C/C(=C/CCC(C)(O)C1CC[C@@]2(C)[C@@H]3CC=C4[C@@H](CC[C@H](O[C@H]5O[C@@H](CO)[C@H](O)[C@@H](O)[C@@H]5O)C4(C)C)[C@]3(C)C(=O)C[C@]12C)CO[C@@H]1O[C@H](CO)[C@@H](O)[C@H](O)[C@H]1O (some centres undefined)	inactive
Cc1cccc(C2c3[nH]c4ccccc4c3CCN2Cc2cccn2-c2ncccn2)c1 (centres undefined)	inactive
COCCN=c1scc(-c2ccc3c(c2)NC(=O)CO3)n1/N=C(\C)c1ccc(O)cc1	inconclusive: 29.1 µM [falling, single point]
COc1cc(/C=C(/NC(=O)c2ccccc2)C(=O)N2CCN(C)CC2)c([N+](=O)[O-])cc1OC	inactive
Cc1ccc(C(=O)Nc2cccc(S(=O)(=O)N3CCCCC3)c2)cc1S(=O)(=O)N1CCOCC1	active: 7.31 µM
CC(=O)c1c(C)[nH]c(C(=O)OCC(=O)Nc2ccc3c(c2)OCCO3)c1C	active: 16.4 µM
COC(=O)c1ccc(CC(=O)c2nc3ccccc3s2)cc1	inconclusive: 23.1 µM [activator, single point]
Oc1ccc(Nc2ccnc3cc(Cl)ccc23)cc1	inactive
CCOC(=O)c1cc(C)sc1NC(=O)CSC1=NCCS1	inconclusive: 23.1 µM [falling, single point]
CCNC(=O)Cn1c(-c2cccs2)cc2ccccc21	inactive
Cc1oc(C)c2c(=O)cc(-c3ccc4c(c3)OCO4)cc(OC(=O)c3ccccc3Br)c12	inactive
COc1ccc(-c2[nH]c(-c3cc(OC)c4c(c3)OCO4)nc2-c2ccccc2)cc1	active: 23.1 µM
COc1cc2c(C(=O)NCc3ccc4c(c3)OCO4)cn(CC(C)C)c(=O)c2cc1OC	inconclusive: 16.4 µM [falling, single point]
COc1ccc(NC(=O)C2CCN(S(=O)(=O)c3ccc4c(c3)CCCC(=O)N4)CC2)cc1Cl	inactive
Cc1ccn(CC(=O)N/N=C/c2cc([N+](=O)[O-])ccc2O)n1	inconclusive: 20.6 µM [falling, single point]
CC(=O)[C@H]1CC[C@H]2[C@@H]3C[C@H](C)C4=CC(=O)CC[C@]4(C)[C@H]3[C@@H](O)C[C@]12C	active: 0.058 µM
O=C(CSCC(=O)N1CCCCC1)Nc1nc(-c2cccs2)cs1	inactive
COc1cc2c(cc1NC(=O)/C=C/c1ccccc1)oc1ccccc12	inconclusive: 13 µM [falling, partial curve]
COc1cc(S(=O)(=O)NCc2ccccc2)ccc1-n1cnnn1	inconclusive: 29.1 µM [falling, single point]
O=C(C(Cc1ccccc1)N1C(=O)C2C3C=CC(C3)C2C1=O)N1CCCCCC1 (centres undefined)	inactive
N#Cc1c(-c2ccccc2)cc(C2CC2)nc1SCC(=O)c1cccs1	inconclusive: 32.6 µM [falling, partial curve, poor fit]
CCOc1ccc(CNS(=O)(=O)c2c(C(=O)N3CCCCCC3)c(C)n(C)c2C)cc1OC	inactive
COc1ccc(NC(=O)c2csc(Cc3ccc(Cl)cc3)n2)cc1	inactive

Three entries from above, with each value named:
CCOC(=O)c1cc(C)sc1NC(=O)CSC1=NCCS1
  Potency: inconclusive: 23.1 µM [falling, single point]
CCNC(=O)Cn1c(-c2cccs2)cc2ccccc21
  Potency: inactive
Cc1oc(C)c2c(=O)cc(-c3ccc4c(c3)OCO4)cc(OC(=O)c3ccccc3Br)c12
  Potency: inactive

(further entries)

SMILES	Potency
Cn1cccc1CNC(=O)Nc1ccc(Cl)c(Cl)c1	inconclusive: 5.8 µM [activator, full curve, poor fit]
CCC(=O)Nc1nonc1-c1nc2ccccc2n1Cc1cccc2ccccc12	inconclusive: 29.1 µM [activator, single point]
C(=Cc1cnnc2ccccc12)c1ccccc1	inconclusive: 8.2 µM [activator, partial curve]
COc1ccc(/C=C/C(=O)C2(O)CCCCC2)cc1	inconclusive: 11.6 µM [activator, partial curve, poor fit]
Cc1ccc(C(C)C)c2c1C(c1ccc3c(c1)OCO3)CC(=O)O2 (centres undefined)	inconclusive: 8.2 µM [falling, partial curve]
Cc1ccc(-c2c(C(=O)Nc3ccc(F)c(F)c3)oc(=O)c3ccccc23)cc1	inconclusive: 6.51 µM [falling, partial curve, poor fit]
COc1ccc(-c2noc(CSc3nc(N)c(-c4ccccc4)c(=O)[nH]3)n2)cc1OC	inactive
Cn1nc(C(=O)Nc2cccc(S(=O)(=O)N3CCCCC3)c2)c2ccccc2c1=O	inconclusive: 9.2 µM [falling, partial curve]
CN(C(=O)c1ccc(COc2ccccc2Cl)o1)c1ccccc1	inconclusive: 16.4 µM [falling, partial curve, poor fit]
Cc1cccc(N(Cc2ccccc2)C(=O)c2cc(S(=O)(=O)N3CCOCC3)ccc2Cl)c1	inconclusive: 29.1 µM [falling, single point]
COc1cc(NC2CCCCC2O)c2nc(-c3ccc(Cl)cc3)ccc2c1 (centres undefined)	inconclusive: 29.1 µM [falling, single point]
O=C(Nc1nnc(C2CC2)s1)C1Cc2ccccc2CN1S(=O)(=O)c1ccccc1F (centres undefined)	inconclusive: 16.4 µM [falling, partial curve, poor fit]
COCCNC(=S)N1CCN(c2cccc(C(F)(F)F)c2)CC1	inconclusive: 23.1 µM [falling, single point]
COc1ccc(CNC(=O)CCC(=O)N2CC3CCCN3c3ccccc32)cc1 (centres undefined)	inconclusive: 29.1 µM [activator, single point]
COc1ccc(-c2cccc(C3C4C=CCCC4(C)C(=O)N3Cc3ccccc3)c2)cc1 (centres undefined)	inactive
C=CCNc1nc(S(=O)Cc2ccc(C)cc2)nc2c1CCCC2 (centres undefined)	inconclusive: 9.2 µM [falling, partial curve]
CCc1cc(/C(Cc2csc(C)n2)=N/O)c(O)cc1O	inconclusive: 29.1 µM [falling, single point]
COc1ccc2nnc(-c3ccc(C(F)(F)F)cc3)n2n1	inconclusive: 29.1 µM [activator, partial curve, poor fit]
Cc1ccc(NC(=O)Nc2nnc(N3CCCC3)s2)c(C)c1	inactive
Oc1ccc(N2CCN(C(c3ccncc3)c3nnnn3C3CCCC3)CC2)cc1 (centres undefined)	inconclusive: 5.17 µM [falling, partial curve, poor fit]
Cc1nn(-c2ccccn2)c2c1-c1nc(N)ncc1CC2	inactive
CC(C(=O)N1CCc2ccccc21)N(C)CC(=O)Nc1ccccc1Cl (centres undefined)	inconclusive: 6.51 µM [falling, partial curve, poor fit]
CCOc1cc(-c2noc(CCCC(N)=O)n2)cc(Br)c1OC	inconclusive: 1.3 µM [falling, partial curve, poor fit]
